According to patent US20210072252A1 (WASHINGTON UNIVERSITY, published 2021):

Molecular target: peptide with N-terminal aspartate
Assay: biolayer interferometry (Blitz), peptide-coated sensor, NAAB in 1x PBS, 1:1 fit, kd/ka

B1: AspNAAB (enzyme)
chain: LPLDSNHVNTEEARLKYRYLDLRRPEMAQRLKTRAKITSLVRRFMDDHGFLDIETPMLTKATPEGARDYLVPSRVHKGKFYALPQSPQLFKQLLMMSGFDRYYQIVKCFRDEDLRADRQPEFTQIDVETSFMTAPQVREVMEALVRHLWLEVKGVDLGDFPVMTFAEAERRYGSDKPDLRNPMELTDVADLLRSVEFAVFAGPANDPKGRVAALRVPGGASLTRKQIDEYDNFVKIYGAKGLAYIKVNERAKGLEGINSPVAKFLNAEIIEAILDRTAAQDGDMIFFGADNKKIVADAMGALRLKVGKDLGLTDESKWAPLWVIDFPMFEDDGEGGLTAMHHPFTSPKDMTAAELKAAPENAVANAYDMVINGYEVGGGSVRIHNGDMQQTVFGILGINEEEQREKFGFLLDALKYGTPPHAGLAFGLDRLTMLLTGTDNIRDVIAFPK
For B1, which Kd is on record?
Its Kd is 411 nM.
